Measured values published in PMC9675819.
No constants are given. Whether binding was seen depends on the method and setting. Binding seen in cells or lysates may run through a third protein. Here binding means that the protein was enriched with, or labelled near, the bait; the list need not be complete.

By UniProt entry, the sequences of proteins in these tests, tags left out.
UniProt O00571: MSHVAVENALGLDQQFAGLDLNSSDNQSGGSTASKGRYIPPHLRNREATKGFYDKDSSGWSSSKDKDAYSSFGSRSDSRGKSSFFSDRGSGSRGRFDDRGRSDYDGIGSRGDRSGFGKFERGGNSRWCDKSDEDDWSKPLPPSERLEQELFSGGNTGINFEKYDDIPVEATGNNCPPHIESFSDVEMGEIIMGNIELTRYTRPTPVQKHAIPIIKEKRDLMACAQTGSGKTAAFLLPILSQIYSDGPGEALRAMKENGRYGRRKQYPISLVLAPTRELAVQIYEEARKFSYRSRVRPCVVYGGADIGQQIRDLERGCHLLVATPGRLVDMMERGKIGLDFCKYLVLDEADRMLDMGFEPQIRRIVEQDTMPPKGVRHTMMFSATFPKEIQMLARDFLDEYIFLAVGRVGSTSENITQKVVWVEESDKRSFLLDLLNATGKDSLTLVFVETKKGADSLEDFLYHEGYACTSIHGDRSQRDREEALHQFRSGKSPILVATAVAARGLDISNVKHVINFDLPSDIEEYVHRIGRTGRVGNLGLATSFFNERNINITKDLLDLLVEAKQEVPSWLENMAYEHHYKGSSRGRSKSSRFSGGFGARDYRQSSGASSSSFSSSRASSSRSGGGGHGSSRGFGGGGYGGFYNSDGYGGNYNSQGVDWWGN
UniProt Q7Z434: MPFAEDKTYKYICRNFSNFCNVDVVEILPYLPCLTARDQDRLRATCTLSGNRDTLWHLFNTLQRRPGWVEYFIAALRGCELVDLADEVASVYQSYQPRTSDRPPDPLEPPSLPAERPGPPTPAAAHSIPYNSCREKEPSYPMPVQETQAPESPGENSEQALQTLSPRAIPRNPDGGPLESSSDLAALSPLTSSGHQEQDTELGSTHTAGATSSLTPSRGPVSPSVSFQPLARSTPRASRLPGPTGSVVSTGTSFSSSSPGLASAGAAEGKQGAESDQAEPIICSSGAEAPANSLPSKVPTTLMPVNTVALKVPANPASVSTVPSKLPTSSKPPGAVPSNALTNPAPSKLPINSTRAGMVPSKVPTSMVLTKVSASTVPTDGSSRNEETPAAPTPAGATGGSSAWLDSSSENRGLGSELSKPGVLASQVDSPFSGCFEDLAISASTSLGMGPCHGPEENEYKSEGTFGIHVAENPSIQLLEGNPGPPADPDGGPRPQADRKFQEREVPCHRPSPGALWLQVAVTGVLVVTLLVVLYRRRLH
UniProt Q9UHD2: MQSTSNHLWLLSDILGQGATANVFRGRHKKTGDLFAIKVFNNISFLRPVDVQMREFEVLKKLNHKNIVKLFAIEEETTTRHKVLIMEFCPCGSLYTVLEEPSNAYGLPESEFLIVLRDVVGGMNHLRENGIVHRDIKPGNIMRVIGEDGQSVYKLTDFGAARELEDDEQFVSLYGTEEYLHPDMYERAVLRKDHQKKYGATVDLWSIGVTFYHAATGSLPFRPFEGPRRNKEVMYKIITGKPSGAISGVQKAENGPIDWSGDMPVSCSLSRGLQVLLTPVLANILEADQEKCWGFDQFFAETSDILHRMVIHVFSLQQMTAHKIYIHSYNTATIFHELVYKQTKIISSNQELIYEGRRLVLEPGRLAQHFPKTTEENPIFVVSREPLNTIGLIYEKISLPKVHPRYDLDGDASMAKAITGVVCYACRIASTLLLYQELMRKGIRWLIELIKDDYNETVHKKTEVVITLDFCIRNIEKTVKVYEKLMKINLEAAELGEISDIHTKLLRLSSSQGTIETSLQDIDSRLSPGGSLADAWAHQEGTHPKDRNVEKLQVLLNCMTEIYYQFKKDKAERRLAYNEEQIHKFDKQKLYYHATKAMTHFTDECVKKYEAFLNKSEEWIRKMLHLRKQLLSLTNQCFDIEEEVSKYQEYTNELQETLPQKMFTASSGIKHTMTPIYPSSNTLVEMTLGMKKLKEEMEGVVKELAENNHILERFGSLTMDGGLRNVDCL
UniProt O00463: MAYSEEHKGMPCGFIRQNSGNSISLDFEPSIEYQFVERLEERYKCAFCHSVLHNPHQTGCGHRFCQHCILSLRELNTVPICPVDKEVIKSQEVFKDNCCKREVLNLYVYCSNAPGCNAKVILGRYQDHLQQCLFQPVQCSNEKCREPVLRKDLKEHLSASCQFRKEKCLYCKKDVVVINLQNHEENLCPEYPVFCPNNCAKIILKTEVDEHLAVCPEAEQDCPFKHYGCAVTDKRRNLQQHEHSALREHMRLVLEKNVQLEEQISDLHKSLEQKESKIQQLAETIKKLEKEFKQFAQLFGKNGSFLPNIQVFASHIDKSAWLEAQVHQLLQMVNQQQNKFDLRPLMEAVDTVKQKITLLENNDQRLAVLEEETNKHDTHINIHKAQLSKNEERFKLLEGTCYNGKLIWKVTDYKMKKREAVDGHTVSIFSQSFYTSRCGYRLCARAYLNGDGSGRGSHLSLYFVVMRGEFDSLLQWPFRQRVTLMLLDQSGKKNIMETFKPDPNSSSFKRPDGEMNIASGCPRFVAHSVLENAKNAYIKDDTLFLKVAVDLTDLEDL

B1: TRAF1 (protein, UniProt Q13077 1-416)
chain: MASSSGSSPRPAPDENEFPFGCPPTVCQDPKEPRALCCAGCLSENPRNGEDQICPKCRGEDLQSISPGSRLRTQEKAHPEVAEAGIGCPFAGVGCSFKGSPQSVQEHEVTSQTSHLNLLLGFMKQWKARLGCGLESGPMALEQNLSDLQLQAAVEVAGDLEVDCYRAPCSESQEELALQHFMKEKLLAELEGKLRVFENIVAVLNKEVEASHLALATSIHQSQLDRERILSLEQRVVELQQTLAQKDQALGKLEQSLRLMEEASFDGTFLWKITNVTRRCHESACGRTVSLFSPAFYTAKYGYKLCLRLYLNGDGTGKRTHLSLFIVIMRGEYDALLPWPFRNKVTFMLLDQNNREHAIDAFRPDLSSASFQRPQSETNVASGCPLFFPLSKLQSPKHAYVKDDTMFLKCIVETST
B2: TRAF4 (protein, UniProt Q9BUZ4 1-470)
chain: MPGFDYKFLEKPKRRLLCPLCGKPMREPVQVSTCGHRFCDTCLQEFLSEGVFKCPEDQLPLDYAKIYPDPELEVQVLGLPIRCIHSEEGCRWSGPLRHLQGHLNTCSFNVIPCPNRCPMKLSRRDLPAHLQHDCPKRRLKCEFCGCDFSGEAYESHEGMCPQESVYCENKCGARMMRRLLAQHATSECPKRTQPCTYCTKEFVFDTIQSHQYQCPRLPVACPNQCGVGTVAREDLPGHLKDSCNTALVLCPFKDSGCKHRCPKLAMARHVEESVKPHLAMMCALVSRQRQELQELRRELEELSVGSDGVLIWKIGSYGRRLQEAKAKPNLECFSPAFYTHKYGYKLQVSAFLNGNGSGEGTHLSLYIRVLPGAFDNLLEWPFARRVTFSLLDQSDPGLAKPQHVTETFHPDPNWKNFQKPGTWRGSLDESSLGFGYPKFISHQDIRKRNYVRDDAVFIRAAVELPRKILS

Molecular target: FLAG-DDX3X (UniProt O00571)
Assay: affinity purification with mass spectrometry; FLAG-DDX3X from transfected HEK293T lysate (co-immunoprecipitation lysis buffer) enriched on anti-FLAG M2 beads at 4 °C for 4 hours, eluted with 3xFLAG peptide, silver-stained gel, mass spectrometry; in presence or absence of circRIG-I

binding, binds:
MAVS (from UniProt Q7Z434 1-540)
TBK1 (from UniProt Q9UHD2 1-729)
TRAF5 (from UniProt O00463 1-557)
B1
B2
